From publication PMC5339975, “Cytotoxicity, antimicrobial and antioxidant activity of eight compounds isolated from Entada abyssinica (Fabaceae)” (BMC Research Notes, 2017)

Legend:
RAW 264.7 cells = test: MTT cytotoxicity assay, cancer cells; assay type: cell-based; conditions: LC50 of Vero cells divided by LC50 of RAW 264.7 cells
Description: (§1) Cancer cell lines including human monocytic THP-1 and murine macrophage RAW 264.7 cells and the normal mammalian Vero monkey kidney cell line were obtained from the American Type Culture Collection (Rockville, MD, USA). They were maintained in DMEM under standard cell culture conditions at 37 °C and 5% CO2 in a humidified environment.
(§2) The 3-(4,5-dimethylthiazol-2-yl)-2,5-diphenyltetrazolium bromide (MTT) assay was used to determine the cytotoxicity of the compounds as previously described. The selectivity index (SI) values to identify selective anti-cancer cell activity were calculated by dividing the LC50 values of normal Vero cells by the LC50 of cancer cells.

THP-1 cells = test: MTT cytotoxicity assay, cancer cells; assay type: cell-based; conditions: LC50 of Vero cells divided by LC50 of THP-1 cells
Description: as §1, §2

| Compound | RAW 264.7 SI (RAW 264.7 cells) | THP-1 SI (THP-1 cells) |
| --- | --- | --- |
| C[C@@H]1O[C@@H](Oc2c(-c3ccc(O)c(O)c3)oc3cc(O)cc(O)c3c2=O)[C@H](O)[C@H](O)[C@H]1O [Compound 2, quercetin-3-O-α-L-rhamnoside] | 4.28 |  |
| COC(=O)/C=C(/C)CC[C@]1(C)[C@H]2CCC=C(C(=O)O)[C@]2(C)CC[C@@H]1C [Compound 4, (8S)-kolavic acid 15-methyl ester] | 1.35 | 1.41 |
| C[C@@H]1CC[C@@]2(C)C(C(=O)O)=CCC[C@@H]2[C@@]1(C)CC(=O)O [Compound 5, 13,14,15,16-tetranor-3-clerodene-12,18-dioic acid] | 4.37 | 3.23 |
| COC(=O)c1cc(O)c(O)c(O)c1 [Compound 6, methyl gallate] | 1.91 | 0.94 |
| COc1c(O)c(O)cc2c1COc1c-2oc2cc(O)cc(O)c2c1=O [Compound 7, entadanin] | 3.68 | 0.84 |
| O=C(CCCCCCCCCCCCCCCCCCCCCCCCC(=O)OC[C@@H](O)CO)OC[C@@H](O)CO [Compound 8, bis-[(S)-(2,3-dihydroxypropyl)] hexacosanedioate] | 0.81 | 1.08 |
| COc1ccc(C[C@H](N)C(=O)N[C@H]2[C@@H](O)[C@H](n3cnc4c(N(C)C)ncnc43)O[C@@H]2CO)cc1 [Puromycin, reference compound] | 61.23 | 176.03 |
